Assay results reported in the supplement of paper PMC7646827.
Counter-ions that a name gives are not always drawn. Repeats are few or missing, and single values can be far off.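 All cells are established human bladder cancer lines, one of them grown from a patient-derived xenograft. Viability was read by a luminescent ATP assay as percent inhibition versus vehicle over a seven-point dilution series; the paper calls scores above 59 very active, 30–59 active, 21–29 semi-active, 9–20 low active and below 9 inactive.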

How the values were obtained:
Experiment in all cases: drug sensitivity score DSS3 (score 0-100); higher = more sensitive; extreme values may be limits of the assay
Conditions in all cases: culture: 3D, ultra-low attachment; treatment time: 5 days
UM-UC-13 = tested on: UM-UC-13
UM-UC-1 = tested on: UM-UC-1
UM-UC-9 = tested on: UM-UC-9
UM-UC-6 = tested on: UM-UC-6
TCCSUP = tested on: TCCSUP
J82 = tested on: J82
SW780 = tested on: SW780
UM-UC-3 = tested on: UM-UC-3
T-24 = tested on: T-24
UM-UC-18 = tested on: UM-UC-18
SCaBER = tested on: SCaBER
UM-UC-15 = tested on: UM-UC-15
UM-UC-14 = tested on: UM-UC-14
5637 = tested on: 5637
UM-UC-12 = tested on: UM-UC-12
UM-UC-17 = tested on: UM-UC-17
UM-UC-5 = tested on: UM-UC-5
BC8149 = tested on: BC8149

SMILES: Cn1cnc2c(F)c(Nc3ccc(Br)cc3Cl)c(C(=O)NOCCO)cc21 [Selumetinib] (max dose 10000 nM)
- drug sensitivity score DSS3 (UM-UC-13): 7.43

SMILES: CC(=O)Nc1cccc(-n2c(=O)n(C3CC3)c(=O)c3c(Nc4ccc(I)cc4F)n(C)c(=O)c(C)c32)c1 [Trametinib] (max dose 10000 nM)
- drug sensitivity score DSS3 (UM-UC-13): 68.1

SMILES: COc1cc(F)c(F)c(Nc2ccc(I)cc2F)c1NS(=O)(=O)C1(C[C@H](O)CO)CC1 [Refametinib] (max dose 10000 nM)
- drug sensitivity score DSS3 (UM-UC-13): 16

SMILES: O=C(c1ccc(F)c(F)c1Nc1ccc(I)cc1F)N1CC(O)([C@@H]2CCCCN2)C1 [Cobimetinib] (max dose 10000 nM)
- drug sensitivity score DSS3 (UM-UC-13): 36.4

SMILES: COc1cccc(NC(=O)/C=C/c2ccc(Cl)cc2)c1 (max dose 10000 nM)
- drug sensitivity score DSS3 (UM-UC-1): 0
- drug sensitivity score DSS3 (UM-UC-9): 0.818
- drug sensitivity score DSS3 (UM-UC-6): 0
- drug sensitivity score DSS3 (TCCSUP): 0
- drug sensitivity score DSS3 (J82): 0
- drug sensitivity score DSS3 (SW780): 0
- drug sensitivity score DSS3 (UM-UC-3): 0
- drug sensitivity score DSS3 (T-24): 0
- drug sensitivity score DSS3 (UM-UC-18): 0
- drug sensitivity score DSS3 (SCaBER): 0
- drug sensitivity score DSS3 (UM-UC-15): 0
- drug sensitivity score DSS3 (UM-UC-14): 0
- drug sensitivity score DSS3 5637: 0
- drug sensitivity score DSS3 (UM-UC-12): 0
- drug sensitivity score DSS3 (UM-UC-17): 0
- drug sensitivity score DSS3 (UM-UC-5): 0.628
- drug sensitivity score DSS3 (BC8149): 0

SMILES: O=C1Nc2ccc(I)cc2/C1=C/c1cc(Br)c(O)c(Br)c1 [GW5074] (max dose 10000 nM)
- drug sensitivity score DSS3 (UM-UC-1): 0.204
- drug sensitivity score DSS3 (UM-UC-9): 0
- drug sensitivity score DSS3 (UM-UC-6): 0
- drug sensitivity score DSS3 (TCCSUP): 2.07
- drug sensitivity score DSS3 (J82): 3.49
- drug sensitivity score DSS3 (SW780): 2.98
- drug sensitivity score DSS3 (UM-UC-3): 0.416
- drug sensitivity score DSS3 (T-24): 0
- drug sensitivity score DSS3 (UM-UC-18): 2.39
- drug sensitivity score DSS3 (SCaBER): 7.83
- drug sensitivity score DSS3 (UM-UC-15): 0.725
- drug sensitivity score DSS3 (UM-UC-14): 10.1
- drug sensitivity score DSS3 5637: 3.68
- drug sensitivity score DSS3 (UM-UC-12): 10.9
- drug sensitivity score DSS3 (UM-UC-17): 0
- drug sensitivity score DSS3 (UM-UC-5): 0
- drug sensitivity score DSS3 (BC8149): 25.6

SMILES: C#Cc1cccc(Nc2ncnc3cc4c(cc23)OCCOCCOCCO4)c1 [icotinib] (max dose 10000 nM)
- drug sensitivity score DSS3 (UM-UC-1): 0
- drug sensitivity score DSS3 (UM-UC-9): 0.126
- drug sensitivity score DSS3 (UM-UC-6): 0.0196
- drug sensitivity score DSS3 (TCCSUP): 4.39
- drug sensitivity score DSS3 (J82): 5.03
- drug sensitivity score DSS3 (SW780): 4.54
- drug sensitivity score DSS3 (UM-UC-3): 0
- drug sensitivity score DSS3 (T-24): 0
- drug sensitivity score DSS3 (UM-UC-18): 1.98
- drug sensitivity score DSS3 (SCaBER): 4.97
- drug sensitivity score DSS3 (UM-UC-15): 0
- drug sensitivity score DSS3 (UM-UC-14): 2.46
- drug sensitivity score DSS3 5637: 9.16
- drug sensitivity score DSS3 (UM-UC-12): 16.3
- drug sensitivity score DSS3 (UM-UC-17): 1.8
- drug sensitivity score DSS3 (UM-UC-5): 0
- drug sensitivity score DSS3 (BC8149): 4.99

SMILES: COc1ccc(-c2oc3c(CC=C(C)C)c(O[C@@H]4O[C@H](CO)[C@@H](O)[C@H](O)[C@H]4O)cc(O)c3c(=O)c2O[C@@H]2O[C@@H](C)[C@H](O)[C@@H](O)[C@H]2O)cc1 [Icariin] (max dose 10000 nM)
- drug sensitivity score DSS3 (UM-UC-1): 0
- drug sensitivity score DSS3 (UM-UC-9): 0
- drug sensitivity score DSS3 (UM-UC-6): 0
- drug sensitivity score DSS3 (TCCSUP): 0
- drug sensitivity score DSS3 (J82): 0
- drug sensitivity score DSS3 (SW780): 0
- drug sensitivity score DSS3 (UM-UC-3): 0
- drug sensitivity score DSS3 (T-24): 0
- drug sensitivity score DSS3 (UM-UC-18): 0
- drug sensitivity score DSS3 (SCaBER): 0
- drug sensitivity score DSS3 (UM-UC-15): 2.73e-06
- drug sensitivity score DSS3 (UM-UC-14): 0
- drug sensitivity score DSS3 5637: 0
- drug sensitivity score DSS3 (UM-UC-12): 0
- drug sensitivity score DSS3 (UM-UC-17): 0
- drug sensitivity score DSS3 (UM-UC-5): 0
- drug sensitivity score DSS3 (BC8149): 0

SMILES: O=C(O[C@@H]1Cc2c(O)cc(O)cc2O[C@@H]1c1cc(O)c(O)c(O)c1)c1cc(O)c(O)c(O)c1 [(-)-Epigallocatechin Gallate] (max dose 10000 nM)
- drug sensitivity score DSS3 (UM-UC-1): 1.66
- drug sensitivity score DSS3 (UM-UC-9): 0.214
- drug sensitivity score DSS3 (UM-UC-6): 1.53
- drug sensitivity score DSS3 (TCCSUP): 6.57
- drug sensitivity score DSS3 (J82): 0
- drug sensitivity score DSS3 (SW780): 0.272
- drug sensitivity score DSS3 (UM-UC-3): 0.876
- drug sensitivity score DSS3 (T-24): 0
- drug sensitivity score DSS3 (UM-UC-18): 0.793
- drug sensitivity score DSS3 (SCaBER): 2.39
- drug sensitivity score DSS3 (UM-UC-15): 0
- drug sensitivity score DSS3 (UM-UC-14): 1.13
- drug sensitivity score DSS3 5637: 5.02
- drug sensitivity score DSS3 (UM-UC-12): 0
- drug sensitivity score DSS3 (UM-UC-17): 3.45
- drug sensitivity score DSS3 (UM-UC-5): 0
- drug sensitivity score DSS3 (BC8149): 1.2

SMILES: CCN(CC)C(=S)SSC(=S)N(CC)CC [Disulfiram] (max dose 10000 nM)
- drug sensitivity score DSS3 (UM-UC-1): 0
- drug sensitivity score DSS3 (UM-UC-9): 0
- drug sensitivity score DSS3 (UM-UC-6): 0
- drug sensitivity score DSS3 (TCCSUP): 0
- drug sensitivity score DSS3 (J82): 0
- drug sensitivity score DSS3 (SW780): 0
- drug sensitivity score DSS3 (UM-UC-3): 0
- drug sensitivity score DSS3 (T-24): 0
- drug sensitivity score DSS3 (UM-UC-18): 0
- drug sensitivity score DSS3 (SCaBER): 0
- drug sensitivity score DSS3 (UM-UC-15): 0
- drug sensitivity score DSS3 (UM-UC-14): 0
- drug sensitivity score DSS3 5637: 0
- drug sensitivity score DSS3 (UM-UC-12): 0
- drug sensitivity score DSS3 (UM-UC-17): 0
- drug sensitivity score DSS3 (UM-UC-5): 0
- drug sensitivity score DSS3 (BC8149): 0

SMILES: CO[C@H]1/C=C\C=C(/C)C(=O)NC2=CC(=O)C(NCCN(C)C)=C(C[C@@H](C)C[C@H](OC)[C@H](O)[C@@H](C)/C=C(\C)[C@@H]1OC(N)=O)C2=O [17-DMAG (Alvespimycin) HCl] (max dose 10000 nM)
- drug sensitivity score DSS3 (UM-UC-1): 33.6
- drug sensitivity score DSS3 (UM-UC-9): 33
- drug sensitivity score DSS3 (UM-UC-6): 19.9
- drug sensitivity score DSS3 (TCCSUP): 77.9
- drug sensitivity score DSS3 (J82): 10.4
- drug sensitivity score DSS3 (SW780): 20.9
- drug sensitivity score DSS3 (UM-UC-3): 40.1
- drug sensitivity score DSS3 (T-24): 35.7
- drug sensitivity score DSS3 (UM-UC-18): 48.6
- drug sensitivity score DSS3 (SCaBER): 58.1
- drug sensitivity score DSS3 (UM-UC-15): 35.1
- drug sensitivity score DSS3 (UM-UC-14): 29.2
- drug sensitivity score DSS3 5637: 65.4
- drug sensitivity score DSS3 (UM-UC-12): 27.1
- drug sensitivity score DSS3 (UM-UC-17): 29.4
- drug sensitivity score DSS3 (UM-UC-5): 36.1
- drug sensitivity score DSS3 (BC8149): 57.5

SMILES: O=C(NC[C@H](O)CO)c1ccncc1Nc1ccc(I)cc1F [Pimasertib] (max dose 10000 nM)
- drug sensitivity score DSS3 (UM-UC-13): 25.6

SMILES: C[C@]12CCC(=O)C=C1CC[C@@H]1[C@@H]2[C@@H](O)C[C@@]2(C)[C@H]1CC[C@]2(O)C(=O)CO [Hydrocortisone] (max dose 10000 nM)
- drug sensitivity score DSS3 (UM-UC-1): 0
- drug sensitivity score DSS3 (UM-UC-9): 0
- drug sensitivity score DSS3 (UM-UC-6): 0
- drug sensitivity score DSS3 (TCCSUP): 0
- drug sensitivity score DSS3 (J82): 0
- drug sensitivity score DSS3 (SW780): 0
- drug sensitivity score DSS3 (UM-UC-3): 4.7
- drug sensitivity score DSS3 (T-24): 0
- drug sensitivity score DSS3 (UM-UC-18): 0.159
- drug sensitivity score DSS3 (SCaBER): 0
- drug sensitivity score DSS3 (UM-UC-15): 0
- drug sensitivity score DSS3 (UM-UC-14): 0
- drug sensitivity score DSS3 5637: 1.73
- drug sensitivity score DSS3 (UM-UC-12): 0.489
- drug sensitivity score DSS3 (UM-UC-17): 0
- drug sensitivity score DSS3 (UM-UC-5): 0
- drug sensitivity score DSS3 (BC8149): 0

SMILES: O=C(NOC[C@H](O)CO)c1ccc(F)c(F)c1Nc1ccc(I)cc1F (max dose 10000 nM)
- drug sensitivity score DSS3 (UM-UC-1): 8.89
- drug sensitivity score DSS3 (UM-UC-9): 0.705
- drug sensitivity score DSS3 (UM-UC-6): 0
- drug sensitivity score DSS3 (TCCSUP): 5.27
- drug sensitivity score DSS3 (J82): 0.521
- drug sensitivity score DSS3 (UM-UC-13): 23.6
- drug sensitivity score DSS3 (SW780): 0
- drug sensitivity score DSS3 (UM-UC-3): 29.3
- drug sensitivity score DSS3 (T-24): 7.74
- drug sensitivity score DSS3 (UM-UC-18): 0
- drug sensitivity score DSS3 (SCaBER): 37.3
- drug sensitivity score DSS3 (UM-UC-15): 0
- drug sensitivity score DSS3 (UM-UC-14): 2.22
- drug sensitivity score DSS3 5637: 5.93
- drug sensitivity score DSS3 (UM-UC-17): 0
- drug sensitivity score DSS3 (UM-UC-5): 43.7
- drug sensitivity score DSS3 (BC8149): 12.7

SMILES: COc1c(C)c2c(c(O)c1C/C=C(\C)CCC(=O)OCCN1CCOCC1)C(=O)OC2 [Mycophenolate Mofetil] (max dose 10000 nM)
- drug sensitivity score DSS3 (UM-UC-1): 2.05
- drug sensitivity score DSS3 (UM-UC-9): 2.62
- drug sensitivity score DSS3 (UM-UC-6): 3.13
- drug sensitivity score DSS3 (TCCSUP): 15.5
- drug sensitivity score DSS3 (J82): 0
- drug sensitivity score DSS3 (SW780): 0.45
- drug sensitivity score DSS3 (UM-UC-3): 7.23
- drug sensitivity score DSS3 (T-24): 0
- drug sensitivity score DSS3 (UM-UC-18): 5.44
- drug sensitivity score DSS3 (SCaBER): 0
- drug sensitivity score DSS3 (UM-UC-15): 41.8
- drug sensitivity score DSS3 (UM-UC-14): 7.84
- drug sensitivity score DSS3 5637: 4.83
- drug sensitivity score DSS3 (UM-UC-12): 2.47
- drug sensitivity score DSS3 (UM-UC-17): 7.08
- drug sensitivity score DSS3 (UM-UC-5): 0.00668
- drug sensitivity score DSS3 (BC8149): 6.22
